Results are given in words; binding and its absence hold for the method and conditions named. In cells and extracts the contact can be indirect. Where a sequence is shown, tags or fusion partners need not be part of it.
Target: T1, VN-Sph1 (synphilin-1 fused behind the N-terminal fragment of Venus) (human) (UniProt Q9Y6H5)
T1 sequence: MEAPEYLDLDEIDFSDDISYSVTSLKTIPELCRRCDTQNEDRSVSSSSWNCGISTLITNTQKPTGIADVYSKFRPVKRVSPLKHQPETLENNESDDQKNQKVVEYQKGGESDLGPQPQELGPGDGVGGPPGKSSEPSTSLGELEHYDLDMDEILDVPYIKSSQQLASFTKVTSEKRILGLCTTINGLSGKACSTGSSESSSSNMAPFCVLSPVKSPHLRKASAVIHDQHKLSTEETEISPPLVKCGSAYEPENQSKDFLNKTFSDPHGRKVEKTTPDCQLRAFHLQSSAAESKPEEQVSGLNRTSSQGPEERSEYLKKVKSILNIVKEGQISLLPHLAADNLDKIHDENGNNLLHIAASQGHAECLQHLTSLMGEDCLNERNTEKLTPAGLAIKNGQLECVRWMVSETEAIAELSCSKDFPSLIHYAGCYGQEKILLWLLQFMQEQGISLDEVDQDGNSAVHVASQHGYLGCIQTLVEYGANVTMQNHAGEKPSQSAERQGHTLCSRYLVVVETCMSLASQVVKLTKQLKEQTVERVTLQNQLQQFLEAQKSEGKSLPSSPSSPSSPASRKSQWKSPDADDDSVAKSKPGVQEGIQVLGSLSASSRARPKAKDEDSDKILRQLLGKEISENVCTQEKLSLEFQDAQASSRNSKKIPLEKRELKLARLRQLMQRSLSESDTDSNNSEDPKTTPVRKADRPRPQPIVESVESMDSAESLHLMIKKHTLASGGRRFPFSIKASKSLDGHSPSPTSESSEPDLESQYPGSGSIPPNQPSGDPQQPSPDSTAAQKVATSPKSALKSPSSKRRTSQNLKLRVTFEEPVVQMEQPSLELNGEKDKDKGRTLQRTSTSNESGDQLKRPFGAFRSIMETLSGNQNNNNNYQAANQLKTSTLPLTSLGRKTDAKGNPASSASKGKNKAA
Experiment: split reporter; Venus BiFC in HEK 293 cells co-transfected with equimolar amounts of the VN and VC plasmids; fluorescence seen 24 or 48 h after transfection

VC alone (C-terminal fragment of Venus) (domain or fragment)
binding: no binding

Reference: PMC12635182
